The list shows a part of the results.
B1: il2ra_site2_2erj_normal_mot_HHH_b2_03519_000000210_0001_20_37_H_._HHH_b2_01928_0001_0000100003_0000001_0 (protein)
chain: SSSSSSDLEELREELEEIARKFDSEALEKMVEEAFRLAEEQNNPHLLEPLLKYAERLFSSSSSSS
B2: il2ra_site2_2erj_sap_23_mot_HHH_b2_00938_af2_000000099_0001_43_55_H_._5511cb2176c827d1feb3066af2f534d5_0001_af2_0001_0000300014_0000001_0_0001 (protein)
chain: DEEEIRKLLEELLGNPELVEEALRVIQKLAEFSKAPPEYILRYFRRQVERLGNPEAVIEFLEEAG
B3: il2ra_site1_3nfp_normal_mot_16934e337390fad51c35c10e6cd388ee_0001_1_000000171_0001_52_65_H_._HHH_b1_03835_0001_0000400014_0000001_0_af2pred_0001_af2pred (protein)
chain: SSSSDRNREFLRLAKEAAEAAKEGDPEEVEKLLERLREIAEEANSPIAKLYVERLERSIKSSSSS
B4: il2ra_site2_2erj_sap_15_mot_HHH_b2_07568_000000046_0001_18_34_H_._HHH_b2_04504_af2_0001_0000100001_0000001_0_0001 (protein)
chain: SSSSSEELRRLYELAVRILHLLARGDEEEVEELLQELEELARRLQSENAEEVVEAVKRTISSSSS
B5: il2ra_site2_3nfp_sap_13_mot_HHH_b2_01155_000000159_0001_38_52_H_._HHH_b1_01485_0001_0000400030_0000001_1_0001 (protein)
chain: DEVSEVIYELFEEGDPELAALLFWVRALVLEKDDPELEEELEKLIELAKRDPEEAKELAERLARK
B6: il2ra_site2_3nfp_sap_17_mot_HHH_b2_06150_000000230_0001_39_53_H_._HHH_b1_00061_0001_0000300020_0000001_0_0001 (protein)
chain: SSSSSHAEEYLRAALALLEEALEEGDEEFFRKLARLIEASAEQARDEEVVEEVRRLLEEFDSSSS
B7: il2ra_site2_2erj_sap_19_mot_0c4a4c8772ac5c82cb0652bfb64fb1f0_0001_af2_000000188_0001_37_51_H_._HHH_b2_03323_0001_0000800061_0000001_0_0001 (protein)
chain: SSSSDWLHRLYELAVEILRLIAEGDPEEARRLLEELEELAEERDSPAAEKIVERLEKDIESSSSS
B8: il2ra_site2_3nfp_sap_17_mot_HHH_b1_07288_000000026_0001_20_36_H_._HHH_b2_07203_0001_0000400030_0000001_1_0001 (protein)
chain: SSSSSSKAEEYVRAALELLRRIKDEELFEKHFEVIRLAIESNGDEELRELLEEIREEYRSSSSSS
B9: il2ra_site1_1z92_sap_15_mot_01209686ea234b34325f918445e6eade_0001_af2_000000144_0001_18_33_H_._418b0f4789b0b78872a3c6dbebafb2a7_0001_af2_0001_0000100003_0000001 … (protein)
chain: DEELEQLVEEARKYLPPELQRFLEELLEYLKKTGNPAYEFLIRQIVRKAKLDPEAAKKLVERMKR
B10: il2ra_site2_3nfp_normal_mot_HHH_b2_05605_000000133_0001_1_20_H_._HHH_b1_03122_0001_0000200006_0000001_0 (protein)
chain: SSSSDEEHERLWELSRRAFRLLEEGNPEEAEEVLEEARELAERNDSRVILRSIEELLKDLNSSSS
B11: il2ra_site1_2b5i_sap_6_mot_HHH_b1_01495_af2_000000272_0001_42_56_H_._HHH_b2_04607_0001_0000300012_0000001_0_0001_af2pred_0001_af2pred (protein)
chain: SSSTERELTRIAAEIVDELAEEFGLDTEQYNLLLRLAVKLVARGVSPEEIEEELEKLAKELSSSS
B12: il2ra_site1_2b5i_normal_mot_HHH_b2_04910_000000118_0001_1_19_H_._HHH_b1_00058_af2_0001_0000400010_0000001_0 (protein)
chain: SSSSSETEEAAKLFREADELDRNGNPEEAEEVLRKAEEIAEEAGNRLLLRMIEFALEAIESSSSS
B13: il2ra_site1_1z92_normal_mot_934a834d9b8b770824478def2ff2f329_0001_af2_000000088_0001_15_30_H_._HHH_b2_03791_af2_0001_0000400037_0000001_0_af2pred_0001_af2pred_1 (protein)
chain: SSSSSEAEEEARRIVEELVEEFGLSERLKRFLERLAEEALELGVDPEDIEKDLRHAAEHFSSSSS
B14: il2ra_site1_3nfp_normal_mot_eb5a5eebac1e5153f932cc6c3f4b2787_0001_af2_000000065_0001_18_33_H_._31bff7180b20e3ed47766ceefd9934be_0001_af2_0001_0000300036_0000001 … (protein)
chain: DEEKELAERIKEAVEKNDPELLEEVVRELLKKLGNPAEAARLFKELLKKAGLSPEEIFLALRLVA
B15: il2ra_site2_2erj_normal_mot_HHH_b1_02968_000000142_0001_22_39_H_._HHH_b1_04378_0001_0000300019_0000001_0 (protein)
chain: SSSSDESRRLVERLEEEFEELLRRGDLEELYKLAQEITHLAWKYNDPELQRIARELLERSSSSSS
B16: il2ra_site2_2erj_sap_24_mot_HHH_b2_01204_af2_000000056_0001_19_34_H_._HHH_b1_03604_0001_0000300013_0000001_0_0001_af2pred_0001_1_af2pred_swapped (protein)
chain: SSSSSSSDEEEVERLLEEAKRIRNLKEALEVLQEATEIADKNNNEELLHLITKVLRELSSSSSSS
B17: il2ra_site2_2erj_sap_28_mot_HHH_b1_08290_000000297_0001_19_37_H_._HEEHE_0761_0001_0000500016_0000001_0_0001_af2pred_0001_1_af2pred_swapped (protein)
chain: SSSSSSEEEIRRRVEELLEEAQHIPDLREAMEVLQEAARLADELGDPELLKEVKKVIRKESSSSS
B18: il2ra_site2_2erj_sap_22_mot_0c4a4c8772ac5c82cb0652bfb64fb1f0_0001_af2_000000188_0001_37_51_H_._1519a93453f8284439613b2157c22c9c_0001_0001_0000800043_0000001_0_0 … (protein)
chain: SSSSSDWLHRLYELAEEIIKALHEGDPEAVRELLEELEKLAEEAQSDVAKEIIERVERELSSSSS

Target: il2ra, P01589
Test: yeast display titration

Apparent Kd, inactive:
B1 no binding seen, B2 no binding seen, B3 no binding seen, B4 no binding seen, B5 no binding seen, B6 no binding seen, B7 no binding seen, B8 no binding seen, B9 no binding seen, B10 no binding seen, B11 no binding seen, B12 no binding seen, B13 no binding seen, B14 no binding seen, B15 no binding seen, B16 no binding seen, B17 no binding seen, B18 no binding seen

From PMC10163288
